Laboratory results reported in article PMC12459091.
Where two headings read alike, the source gives them in different places. Results are given in words; binding and its absence hold for the method and conditions named. Binding seen in cells or lysates may run through a third protein. Some binding calls cover weakened binding; strength is not graded here. For part of these data: Where a sequence is shown, tags or fusion partners need not be part of it.

Chains of the proteins cited; added tags and fusions are not shown.
UniProt P61026: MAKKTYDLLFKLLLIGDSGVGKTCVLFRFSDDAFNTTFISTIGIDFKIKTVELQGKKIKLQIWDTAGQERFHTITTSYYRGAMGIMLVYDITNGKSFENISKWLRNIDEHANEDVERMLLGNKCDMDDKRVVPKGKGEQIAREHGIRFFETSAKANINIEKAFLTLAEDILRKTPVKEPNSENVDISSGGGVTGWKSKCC

Legend:
[1] = molecular target: T1, mCherry-RILPL1 (UniProt Q5EBL4); experiment: co-IP; HEK293FT cells transfected with 3xflag-LRRK2 and mCherry-RILPL1 for 24 h, treated or not with LLOME (2 h); lysates in IP buffer (20 mM Tris-HCl pH 7.5, 150 mM NaCl, 1 mM EDTA, 0.3% Triton X-100, 10% glycerol); RFP-Trap magnetic beads 1 h at 4°C; washes with 300 mM NaCl; immunoblot
T1 sequence: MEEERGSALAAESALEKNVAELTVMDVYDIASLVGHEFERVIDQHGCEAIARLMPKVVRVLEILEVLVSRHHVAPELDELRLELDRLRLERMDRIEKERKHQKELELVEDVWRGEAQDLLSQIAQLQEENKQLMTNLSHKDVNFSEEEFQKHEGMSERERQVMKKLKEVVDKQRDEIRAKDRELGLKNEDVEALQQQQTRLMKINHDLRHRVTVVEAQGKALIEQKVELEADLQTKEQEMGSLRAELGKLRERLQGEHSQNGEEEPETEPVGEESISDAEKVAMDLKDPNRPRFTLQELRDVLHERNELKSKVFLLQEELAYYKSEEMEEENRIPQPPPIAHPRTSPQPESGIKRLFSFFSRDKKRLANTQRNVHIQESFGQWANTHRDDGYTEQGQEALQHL

[2] = molecular target: T1, mCherry-RILPL1; experiment: co-IP; U2OS cells transfected with HaloTag-LRRK2 and mCherry-RILPL1 for 36 h, treated or not with LLOME (2 h) or pre-treated with MLi2; immunoprecipitation with anti-RFP (RFP-Trap) beads; immunoblot
[3] = molecular target: T2, 2xmyc-RILPL1 (UniProt Q5EBL4); experiment: co-IP; HEK293T cells transfected with 3xflag-LRRK2 or HaloTag-LRRK2 and 2xmyc-RILPL1 for 24 h (one group also with Ubc-3xHA-JIP4), treated or not with LLOME (2 h); myc-Trap magnetic beads 1 h at 4°C; washes with 300 mM NaCl; immunoblot
T2 sequence: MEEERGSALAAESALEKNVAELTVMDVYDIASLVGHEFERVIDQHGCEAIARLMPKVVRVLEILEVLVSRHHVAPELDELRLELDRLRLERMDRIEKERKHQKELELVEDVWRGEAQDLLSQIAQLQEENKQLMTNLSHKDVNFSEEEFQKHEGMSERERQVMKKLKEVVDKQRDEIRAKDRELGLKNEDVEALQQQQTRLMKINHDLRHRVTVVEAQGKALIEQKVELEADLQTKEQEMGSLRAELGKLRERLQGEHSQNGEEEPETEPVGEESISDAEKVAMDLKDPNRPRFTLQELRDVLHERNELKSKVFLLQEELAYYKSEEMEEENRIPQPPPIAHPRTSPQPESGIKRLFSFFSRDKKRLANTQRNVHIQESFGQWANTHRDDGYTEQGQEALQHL

[4] = molecular target: T2, 2xmyc-RILPL1; experiment: as above; remark: listed apart in the source

For “p150^Glued (DCTN1) (from UniProt Q14203-1 1-1278)”, the binding [1] was “binds”.

pT73-RAB10 (from UniProt P61026 1-200) was tested, and the binding [2] was “binds”, the binding [3] was “binds” and the binding [1] was “binds”.

B1: pS106-RAB12 (protein, UniProt Q6IQ22-2 1-244)
chain: MDPGAALQRRAGGGGGLGAGSPALSGGQGRRRKQPPRPADFKLQVIIIGSRGVGKTSLMERFTDDTFCEACKSTVGVDFKIKTVELRGKKIRLQIWDTAGQERFNSITSAYYRSAKGIILVYDITKKETFDDLPKWMKMIDKYASEDAELLLVGNKLDCETDREITRQQGEKFAQQITGMRFCEASAKDNFNVDEIFLKLVDDILKKMPLDILRNELSNSILSLQPEPEIPPELPPPRPHVRCC
modifications: phosphoserine at 106 (pS106)
With B1 the binding [4] was “binds”.

B2: C-jun-amino-terminal kinase–interacting protein 4 (JIP4) (protein, UniProt O60271 1-1321)
chain: MELEDGVVYQEEPGGSGAVMSERVSGLAGSIYREFERLIGRYDEEVVKELMPLVVAVLENLDSVFAQDQEHQVELELLRDDNEQLITQYEREKALRKHAEEKFIEFEDSQEQEKKDLQTRVESLESQTRQLELKAKNYADQISRLEEREAELKKEYNALHQRHTEMIHNYMEHLERTKLHQLSGSDQLESTAHSRIRKERPISLGIFPLPAGDGLLTPDAQKGGETPGSEQWKFQELSQPRSHTSLKVSNSPEPQKAVEQEDELSDVSQGGSKATTPASTANSDVATIPTDTPLKEENEGFVKVTDAPNKSEISKHIEVQVAQETRNVSTGSAENEEKSEVQAIIESTPELDMDKDLSGYKGSSTPTKGIENKAFDRNTESLFEELSSAGSGLIGDVDEGADLLGMGREVENLILENTQLLETKNALNIVKNDLIAKVDELTCEKDVLQGELEAVKQAKLKLEEKNRELEEELRKARAEAEDARQKAKDDDDSDIPTAQRKRFTRVEMARVLMERNQYKERLMELQEAVRWTEMIRASRENPAMQEKKRSSIWQFFSRLFSSSSNTTKKPEPPVNLKYNAPTSHVTPSVKKRSSTLSQLPGDKSKAFDFLSEETEASLASRREQKREQYRQVKAHVQKEDGRVQAFGWSLPQKYKQVTNGQGENKMKNLPVPVYLRPLDEKDTSMKLWCAVGVNLSGGKTRDGGSVVGASVFYKDVAGLDTEGSKQRSASQSSLDKLDQELKEQQKELKNQEELSSLVWICTSTHSATKVLIIDAVQPGNILDSFTVCNSHVLCIASVPGARETDYPAGEDLSESGQVDKASLCGSMTSNSSAETDSLLGGITVVGCSAEGVTGAATSPSTNGASPVMDKPPEMEAENSEVDENVPTAEEATEATEGNAGSAEDTVDISQTGVYTEHVFTDPLGVQIPEDLSPVYQSSNDSDAYKDQISVLPNEQDLVREEAQKMSSLLPTMWLGAQNGCLYVHSSVAQWRKCLHSIKLKDSILSIVHVKGIVLVALADGTLAIFHRGVDGQWDLSNYHLLDLGRPHHSIRCMTVVHDKVWCGYRNKIYVVQPKAMKIEKSFDAHPRKESQVRQLAWVGDGVWVSIRLDSTLRLYHAHTYQHLQDVDIEPYVSKMLGTGKLGFSFVRITALMVSCNRLWVGTGNGVIISIPLTETNKTSGVPGNRPGSVIRVYGDENSDKVTPGTFIPYCSMAHAQLCFHGHRDAVKFFVAVPGQVISPQSSSSGTDLTGDKAGPSAQEPGSQTPLKSMLVISGGEGYIDFRMGDEGGESELLGEDLPLEPSVTKAERSHLIVWQVMYGNE
For B2, the binding [4] was “no binding”.
